Measured values published in article doi:10.1101/2022.07.22.501140.
Like-named read-outs stand apart in the source and are kept apart here. For at least one entry, the source does not settle the construct or the ends of the probe. For some assays here: A negative result means that nothing was seen under these conditions. For some assays here: The comparison behind a weaker result is the experiment's own reference, which may not be listed here. For some assays here: At least one verdict rests on a figure or table, not on a statement of the authors. For some assays here: Where a protein sequence is shown, tags need not be part of it.

Legend:
[1] = biological target: T1, DmBicc1 N-term (Drosophila melanogaster) (UniProt Q24009); experiment: fluorescence polarization; conditions: negative control
T1 sequence (looked up, limits assumed): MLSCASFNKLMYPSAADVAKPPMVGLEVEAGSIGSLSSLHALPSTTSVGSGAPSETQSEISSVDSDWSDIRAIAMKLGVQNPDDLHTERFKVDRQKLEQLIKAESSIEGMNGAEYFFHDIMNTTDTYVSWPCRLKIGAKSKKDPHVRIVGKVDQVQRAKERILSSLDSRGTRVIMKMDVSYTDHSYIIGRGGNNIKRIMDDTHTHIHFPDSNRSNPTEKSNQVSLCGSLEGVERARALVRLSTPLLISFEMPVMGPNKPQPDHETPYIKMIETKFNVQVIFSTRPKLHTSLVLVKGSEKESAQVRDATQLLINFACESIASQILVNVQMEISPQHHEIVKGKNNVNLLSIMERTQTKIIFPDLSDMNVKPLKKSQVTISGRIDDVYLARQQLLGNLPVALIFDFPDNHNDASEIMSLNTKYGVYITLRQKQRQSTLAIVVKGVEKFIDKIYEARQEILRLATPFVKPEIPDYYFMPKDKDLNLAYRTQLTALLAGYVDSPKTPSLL

[2] = system: DrBicc1 N-term (zebrafish (Danio rerio)); experiment: fluorescence polarization
[3] = biological target: T2, HsBicc1 N-term (human) (UniProt Q9H694); experiment: fluorescence polarization; conditions: negative control
T2 sequence (looked up, limits assumed): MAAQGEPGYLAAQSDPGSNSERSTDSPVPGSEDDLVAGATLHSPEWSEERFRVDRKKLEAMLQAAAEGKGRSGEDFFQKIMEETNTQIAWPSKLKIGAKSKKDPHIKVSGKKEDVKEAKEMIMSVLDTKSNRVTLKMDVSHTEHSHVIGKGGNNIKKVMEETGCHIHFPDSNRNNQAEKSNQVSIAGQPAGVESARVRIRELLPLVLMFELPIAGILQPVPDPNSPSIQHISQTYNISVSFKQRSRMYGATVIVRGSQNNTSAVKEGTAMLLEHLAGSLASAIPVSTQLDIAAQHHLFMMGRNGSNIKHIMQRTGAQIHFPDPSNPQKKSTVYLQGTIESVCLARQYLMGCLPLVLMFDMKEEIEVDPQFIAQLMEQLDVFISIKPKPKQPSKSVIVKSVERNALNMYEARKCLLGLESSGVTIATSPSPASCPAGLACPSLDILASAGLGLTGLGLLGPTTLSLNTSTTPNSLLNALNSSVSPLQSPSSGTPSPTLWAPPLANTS

[4] = biological target: T3, XlBicc1 N-term (KH1-KH3) (Xenopus laevis) (UniProt A0A1L8FE49); experiment: EMSA; conditions: residues 1-506
T3 sequence (looked up): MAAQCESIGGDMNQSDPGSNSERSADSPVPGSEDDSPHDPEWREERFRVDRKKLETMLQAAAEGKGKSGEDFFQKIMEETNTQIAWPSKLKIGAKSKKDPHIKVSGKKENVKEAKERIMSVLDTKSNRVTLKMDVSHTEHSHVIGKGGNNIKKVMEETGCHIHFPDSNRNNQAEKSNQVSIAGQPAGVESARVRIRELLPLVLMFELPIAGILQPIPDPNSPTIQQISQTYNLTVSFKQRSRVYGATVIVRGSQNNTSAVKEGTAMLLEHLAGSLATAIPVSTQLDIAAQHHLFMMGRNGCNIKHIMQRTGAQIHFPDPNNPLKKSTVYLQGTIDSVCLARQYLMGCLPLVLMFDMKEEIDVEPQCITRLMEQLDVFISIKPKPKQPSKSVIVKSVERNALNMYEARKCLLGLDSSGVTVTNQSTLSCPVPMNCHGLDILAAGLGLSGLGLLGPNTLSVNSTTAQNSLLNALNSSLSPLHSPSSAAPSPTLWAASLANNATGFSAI

[5] = system: XlBicc1-ΔKH1 (KH2-KH3) (Xenopus laevis); experiment: fluorescence polarization

CGACUCUAGAAGGACUACGUGGCAUUCCAAUU [Cyclin B1 negative control RNA]
binding result [1]: binds more weakly
binding result ([2]; negative control): binds more weakly
binding result [3]: binds more weakly

CGACUCUAGAAGGUUGUACAUUAACAGCUCC [Cripto-1 leader variant]
binding result [4]: binds more weakly
binding result [5]: no binding
binding result [2]: no binding

CUUAUUAGACACGUUGUACAUUAACAGCUCC [XlCripto-1 wild-type RNA site]
binding result ([2]; high affinity, also EMSA): binds

CUUAUUAGACACGUUGUCGCGAAACAGCUCC [Cripto-1 loop variant]
binding result [4]: binds more weakly
